Test results taken from publication PMC5789847, “Bismuth antimicrobial drugs serve as broad-spectrum metallo-β-lactamase inhibitors” (Nature Communications, 2018).

Experiments:
E. coli ATCC 25922 = assay: Microdilution MIC assay; type: cell-based; conditions: Escherichia coli, ATCC 25922 / CBS0, CBS 0 µg mL-1, read-out: MIC of MER, CBS at 0
Excerpt: (§1) Other procedures were kept strictly the same.

E. coli BL21(DE3) = assay: Microdilution MIC assay; type: cell-based; conditions: Escherichia coli, CBS0, CBS 0 µg mL-1, read-out: MIC of MER, CBS at 0
Excerpt: as §1

`C[C@@H](O)[C@H]1C(=O)N2C(C(=O)O)=C(S[C@@H]3CN[C@H](C(=O)N(C)C)C3)[C@H](C)[C@H]12` [MER, meropenem] showed an MIC (E. coli ATCC 25922) of 0.03 µg/mL and an MIC (E. coli BL21(DE3)) of 0.03 µg/mL.
